Test results reported in patent US10722575B2, “Use of 1,3-diphenylprop-2-en-1-one derivatives for treating liver disorders” (GENFIT, priority 2009, dated 2020).
At least one structure is not confirmed: it was looked up by name or label, or the drawing left a doubt.

Key:
Type in all cases: in vivo
hApoE2 KI mice = hApoE2 KI mice on Western diet, 12 weeks, hepatic gene expression by quantitative RT-PCR; details: 12 weeks in Western diet; Cpd 29 0.3 mg/kg/day, Fenofibrate 100 mg/kg/day; FIG. 3D
Description: The compounds of the General Formula (I) were tested in vivo in a high fat diet mice model. Dyslipidemic “humanized” ApoE2 knock-in mice (hApoE2 KI) were fed a Western diet and treated during 12 weeks. The compounds of interest, including the Compound 29 of WO 2004/005233 at 0.3 mg/kg/day and the Fenofibrate at 100 mg/kg/day (used as a reference compound) were incorporated into the diet. At the end of the protocol, animals were sacrificed, livers were harvested and the hepatic expression of genes that are known to be implicated in the liver inflammation and the fibrosis processes were evaluated by quantitative RT-PCR (Panels A-D). Statistical analysis was performed as indicated for FIG. 1.
Female hApoE2 knock-in (KI) transgenic mice (Sullivan et al., 1998)(4 weeks of age). […] After a 1 week acclimation, mice were separated in groups of 7-10 animals selected such as the distribution of their body weight and plasmatic lipid levels determined before the experiment were uniform. […]
(§1) Total RNA was isolated from frozen livers using the NucleoSpin® 96 RNA kit (Macherey Nagel), according to the manufacturer's instructions. […] Quantitative PCR was then carried out using the MyiQ Single-Color Real-Time PCR Detection System (Biorad). […]
The quantity of fluorescence emitted is directly proportional to the quantity of complementary DNA present at the start of the reaction and amplified during the PCR. […]

ob/ob mice [1] = assay: ob/ob mice, hepatic gene expression by quantitative RT-PCR after 26 days of treatment; details: 26 days daily gavage, Cpd 29 10 and 30 mg/kg/day, Fenofibrate 100 mg/kg/day, Rosiglitazone 10 mg/kg/day; for hepatic expression of TNFalpha: FIG. 2A; for hepatic expression level of TGFbeta: FIG. 2B
Description: The compounds of the General Formula (I) were tested in a murine model of type II diabetes, the ob/ob mice. Mice were daily orally treated with the Compound 29 of WO 2004/005233 at two different doses (10 and 30 mg/kg/day) and with the prototypical PPARalpha- and PPARgamma-specific reference compounds (Fenofibrate at 100 mg/kg/day and Rosiglitazone at 10 mg/kg/day respectively). After 26 days of treatment, animals were sacrificed and plasma samples and livers were harvested. Hepatic expression of genes that are known to be implicated in the liver inflammation process was evaluated and plasmatic levels of ALAT were measured (Panels A-C). Statistical analysis was performed using unpaired T-test with three p values that defines statistical relevance (* means p<0.05; ** means p<0.01; *** means p<0.001).
Male ob/ob mice (8 weeks of age) were purchased from Charles River (L'Arbresle, France) and were kept on a 12-hour light/dark cycle at a constant temperature of 20±3° C. After a 1 week acclimation, mice were separated in groups of 8 animals selected such that the distribution of their body weight and their 6 hours fasting glycemia determined before the experiment were uniform. Animals were fed a standard chow diet (R03, SAFE) and treated during 26 days with the compounds of interest. Compounds, including the Compound 29 of WO 2004005233 (Cpd 29, at 10 or 30 mg/kg/day), Fenofibrate (100 mg/kg/day) and Rosiglitazone (10 mg/kg/day) were administered daily by gavage. Control animals were treated with vehicle only (Carboxymethlycellulose 1%+Tween-80 0.1%). Animals had access to food and water ad libitum.
At the end of the studies, the animals were weighed and sacrificed under anesthesia. Blood was collected from the retro-orbital sinus; plasma was obtained by centrifugation (4 000 rpm, at 4° C. for 15 min) and subsequently frozen and stored at −20° C. Tissues and livers were isolated and snap-frozen in liquid nitrogen and stored at −80° C. for subsequent analysis (gene expression and biochemistry) or fixed in 4% paraformaldehyde for histology.
as §1
The quantity of fluorescence emitted is directly proportional to the quantity of complementary DNA present at the start of the reaction and amplified during the PCR. The relative levels of expression were determined using the standard curve for each transcript. […] The induction factor, i.e. the ratio between the relative signal induced by the compound according to the invention and the average of the values relating to the control group, was then calculated for each sample. […]

ob/ob mice [2] = assay: ob/ob mice, plasma ALAT after 26 days of treatment; details: 26 days daily gavage; Cpd 29 30 mg/kg/day, Rosiglitazone 10 mg/kg/day; FIG. 2C

SMILES | hepatic expression of Col1a1 (collagen genes) (hApoE2 KI mice) | hepatic expression of TNFalpha (ob/ob mice [1]) | hepatic expression level of TGFbeta (ob/ob mice [1]) | plasmatic levels of ALAT (ob/ob mice [2])
CC(C)OC(=O)C(C)(C)Oc1ccc(C(=O)c2ccc(Cl)cc2)cc1 [Fenofibrate] | not observed | no major change | equivalent in all control and reference groups | 
CN(CCOc1ccc(CC2SC(=O)NC2=O)cc1)c1ccccn1 (stereo not drawn) [Rosiglitazone] |  | increase | equivalent in all control and reference groups | significant increase
